PubChem BioAssay AID1159578, Peter MacCallum Cancer Centre – 2015

- Assay: 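Knock-downs that alter how fast lymphatic endothelial cells migrate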 (primary screen)
- Cells: human lymphatic endothelial cells
- Reagent: siRNA pool against human genes, 40 nM
- Time to read-out: 48 h after transfection
- Measured: 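Cells stained with dye and imaged after a scratch; covered wound area and nuclei counted, duplicates averaged, migration set against mock wells and turned into a robust z-score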
- Scale: migration robust z-score: higher = faster migration into the scratch; nuclei per well: higher = more cells in the well
- Hit rule: 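Pools averaging fewer than 3300 nuclei are never called; remaining pools count as changed when migration robust z lies outside -2 to 2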
- Meaning of the calls: active = migration changed; inactive = no migration change, or too few cells
This is an unselected part of about 18,000 reagents tested. Over the whole deposit, about 1,030 (5.7%) are marked active. 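Inactive calls also include pools with fewer than 3300 nuclei, whose migration was not assessed.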 The raw values are shown without normalisation. Unmarked entries are inactive. Not all columns of the deposit are shown.

With CCDC140 (CCDC140 long non-coding RNA), what does the deposit list?
migration robust z-score: 1.21; nuclei per well, duplicate mean: 4244

Which result is listed for PLAG1 (PLAG1 zinc finger)?
migration robust z-score: -0.05; nuclei per well, duplicate mean: 4368

For KIF3A (kinesin family member 3A), how do the results read?
migration robust z-score: -0.46; nuclei per well, duplicate mean: 4062

With KREMEN2 (kringle containing transmembrane protein 2), how do the results read?
migration robust z-score: -0.55; nuclei per well, duplicate mean: 4102

For RASGEF1A (RasGEF domain family member 1A), what was measured?
migration robust z-score: 1.25; nuclei per well, duplicate mean: 6112

What did the screen give for TAS2R31 (taste 2 receptor member 31)?
migration robust z-score: -0.29; nuclei per well, duplicate mean: 6358

What did the screen give for SMOX (spermine oxidase)?
migration robust z-score: 0.34; nuclei per well, duplicate mean: 5747

For ST3GAL5 (ST3 beta-galactoside alpha-2,3-sialyltransferase 5), what does the deposit list?
migration robust z-score: 1.14; nuclei per well, duplicate mean: 6188

What is on record for NCOR2 (nuclear receptor corepressor 2)?
migration robust z-score: 0.29; nuclei per well, duplicate mean: 6354

For SPG11 (SPG11 vesicle trafficking associated, spatacsin), what was measured?
migration robust z-score: 1.2; nuclei per well, duplicate mean: 5102

For CXCL5 (C-X-C motif chemokine ligand 5), what was measured?
migration robust z-score: -0.34; nuclei per well, duplicate mean: 6246

For ST3GAL4 (ST3 beta-galactoside alpha-2,3-sialyltransferase 4), how do the results read?
migration robust z-score: -0.21; nuclei per well, duplicate mean: 5404

Which result is listed for NMNAT3 (nicotinamide nucleotide adenylyltransferase 3)?
migration robust z-score: 0.02; nuclei per well, duplicate mean: 3998

Which result is listed for CCDC159 (coiled-coil domain containing 159)?
migration robust z-score: -0.6; nuclei per well, duplicate mean: 5618

What did the screen give for TMEM132E (transmembrane protein 132E)?
migration robust z-score: -3.13 (active); nuclei per well, duplicate mean: 5057

How did the screen score OR10A7 (olfactory receptor family 10 subfamily A member 7)?
migration robust z-score: -0.29; nuclei per well, duplicate mean: 6069

For NAA25 (N-alpha-acetyltransferase 25, NatB auxiliary subunit), what was measured?
migration robust z-score: -1.27; nuclei per well, duplicate mean: 5555

With RPRD1B (regulation of nuclear pre-mRNA domain containing 1B), what does the deposit list?
migration robust z-score: -0.3; nuclei per well, duplicate mean: 4320

How did the screen score TUB (TUB bipartite transcription factor)?
migration robust z-score: -1.85; nuclei per well, duplicate mean: 4238

For NDUFS3 (NADH:ubiquinone oxidoreductase core subunit S3), what does the deposit list?
migration robust z-score: -1.5; nuclei per well, duplicate mean: 4166

With DPH6 (diphthamine biosynthesis 6), how do the results read?
migration robust z-score: -0.06; nuclei per well, duplicate mean: 5796
